Publication doi:10.1101/180315 (bioRxiv, 2018)
No constants are given. Whether binding was seen depends on the method and setting. Some results given as binding are weak or reduced against the parent protein; the word gives no strength.

Amino acid sequences for entries named in this document (tags omitted).
UniProt Q2TAZ0: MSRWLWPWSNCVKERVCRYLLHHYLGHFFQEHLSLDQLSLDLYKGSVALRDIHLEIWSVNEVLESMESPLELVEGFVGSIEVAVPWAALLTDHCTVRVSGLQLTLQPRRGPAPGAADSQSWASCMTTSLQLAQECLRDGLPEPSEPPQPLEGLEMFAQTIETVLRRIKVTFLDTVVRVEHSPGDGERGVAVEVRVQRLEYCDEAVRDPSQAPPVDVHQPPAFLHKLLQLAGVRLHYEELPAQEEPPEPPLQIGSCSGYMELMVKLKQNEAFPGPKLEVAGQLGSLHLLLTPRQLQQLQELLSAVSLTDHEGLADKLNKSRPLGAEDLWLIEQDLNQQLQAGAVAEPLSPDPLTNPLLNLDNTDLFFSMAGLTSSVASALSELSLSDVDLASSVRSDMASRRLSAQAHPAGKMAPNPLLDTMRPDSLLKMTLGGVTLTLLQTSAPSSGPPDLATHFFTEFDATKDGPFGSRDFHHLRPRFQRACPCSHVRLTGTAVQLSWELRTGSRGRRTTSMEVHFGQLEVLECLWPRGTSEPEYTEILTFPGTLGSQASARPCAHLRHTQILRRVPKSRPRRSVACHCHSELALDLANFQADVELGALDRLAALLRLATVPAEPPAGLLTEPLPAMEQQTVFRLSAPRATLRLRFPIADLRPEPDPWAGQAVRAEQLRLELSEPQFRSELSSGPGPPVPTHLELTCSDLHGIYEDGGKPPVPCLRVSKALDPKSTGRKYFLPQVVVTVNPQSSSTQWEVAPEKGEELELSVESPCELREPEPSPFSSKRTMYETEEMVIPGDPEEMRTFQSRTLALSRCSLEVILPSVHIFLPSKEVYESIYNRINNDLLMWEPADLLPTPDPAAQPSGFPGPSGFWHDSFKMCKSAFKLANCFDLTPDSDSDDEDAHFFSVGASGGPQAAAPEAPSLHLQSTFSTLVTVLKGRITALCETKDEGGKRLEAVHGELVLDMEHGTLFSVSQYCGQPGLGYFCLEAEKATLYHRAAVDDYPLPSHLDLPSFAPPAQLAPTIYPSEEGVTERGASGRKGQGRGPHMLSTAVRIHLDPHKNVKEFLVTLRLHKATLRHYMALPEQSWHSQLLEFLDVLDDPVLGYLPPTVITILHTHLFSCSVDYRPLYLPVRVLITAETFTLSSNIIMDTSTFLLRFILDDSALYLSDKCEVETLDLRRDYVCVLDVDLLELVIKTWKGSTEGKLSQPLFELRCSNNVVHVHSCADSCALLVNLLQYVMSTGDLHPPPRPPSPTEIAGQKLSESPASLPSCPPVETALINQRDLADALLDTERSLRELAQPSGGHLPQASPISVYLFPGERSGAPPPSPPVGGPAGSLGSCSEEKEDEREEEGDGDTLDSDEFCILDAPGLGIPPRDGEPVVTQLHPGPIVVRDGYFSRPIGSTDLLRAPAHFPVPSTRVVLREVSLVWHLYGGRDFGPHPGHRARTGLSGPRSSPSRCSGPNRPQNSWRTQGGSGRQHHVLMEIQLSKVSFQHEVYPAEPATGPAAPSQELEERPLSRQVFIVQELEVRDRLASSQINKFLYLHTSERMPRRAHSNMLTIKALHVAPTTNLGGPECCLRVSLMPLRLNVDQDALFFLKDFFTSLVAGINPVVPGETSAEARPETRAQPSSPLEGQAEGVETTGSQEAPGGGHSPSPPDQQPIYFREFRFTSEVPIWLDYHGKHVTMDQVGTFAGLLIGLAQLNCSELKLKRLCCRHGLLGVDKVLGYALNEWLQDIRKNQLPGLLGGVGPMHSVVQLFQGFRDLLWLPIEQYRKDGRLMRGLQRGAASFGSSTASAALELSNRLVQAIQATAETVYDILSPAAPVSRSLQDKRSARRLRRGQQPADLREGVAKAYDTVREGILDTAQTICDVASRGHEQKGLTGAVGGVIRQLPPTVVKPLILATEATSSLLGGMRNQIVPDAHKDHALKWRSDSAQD
UniProt P53855: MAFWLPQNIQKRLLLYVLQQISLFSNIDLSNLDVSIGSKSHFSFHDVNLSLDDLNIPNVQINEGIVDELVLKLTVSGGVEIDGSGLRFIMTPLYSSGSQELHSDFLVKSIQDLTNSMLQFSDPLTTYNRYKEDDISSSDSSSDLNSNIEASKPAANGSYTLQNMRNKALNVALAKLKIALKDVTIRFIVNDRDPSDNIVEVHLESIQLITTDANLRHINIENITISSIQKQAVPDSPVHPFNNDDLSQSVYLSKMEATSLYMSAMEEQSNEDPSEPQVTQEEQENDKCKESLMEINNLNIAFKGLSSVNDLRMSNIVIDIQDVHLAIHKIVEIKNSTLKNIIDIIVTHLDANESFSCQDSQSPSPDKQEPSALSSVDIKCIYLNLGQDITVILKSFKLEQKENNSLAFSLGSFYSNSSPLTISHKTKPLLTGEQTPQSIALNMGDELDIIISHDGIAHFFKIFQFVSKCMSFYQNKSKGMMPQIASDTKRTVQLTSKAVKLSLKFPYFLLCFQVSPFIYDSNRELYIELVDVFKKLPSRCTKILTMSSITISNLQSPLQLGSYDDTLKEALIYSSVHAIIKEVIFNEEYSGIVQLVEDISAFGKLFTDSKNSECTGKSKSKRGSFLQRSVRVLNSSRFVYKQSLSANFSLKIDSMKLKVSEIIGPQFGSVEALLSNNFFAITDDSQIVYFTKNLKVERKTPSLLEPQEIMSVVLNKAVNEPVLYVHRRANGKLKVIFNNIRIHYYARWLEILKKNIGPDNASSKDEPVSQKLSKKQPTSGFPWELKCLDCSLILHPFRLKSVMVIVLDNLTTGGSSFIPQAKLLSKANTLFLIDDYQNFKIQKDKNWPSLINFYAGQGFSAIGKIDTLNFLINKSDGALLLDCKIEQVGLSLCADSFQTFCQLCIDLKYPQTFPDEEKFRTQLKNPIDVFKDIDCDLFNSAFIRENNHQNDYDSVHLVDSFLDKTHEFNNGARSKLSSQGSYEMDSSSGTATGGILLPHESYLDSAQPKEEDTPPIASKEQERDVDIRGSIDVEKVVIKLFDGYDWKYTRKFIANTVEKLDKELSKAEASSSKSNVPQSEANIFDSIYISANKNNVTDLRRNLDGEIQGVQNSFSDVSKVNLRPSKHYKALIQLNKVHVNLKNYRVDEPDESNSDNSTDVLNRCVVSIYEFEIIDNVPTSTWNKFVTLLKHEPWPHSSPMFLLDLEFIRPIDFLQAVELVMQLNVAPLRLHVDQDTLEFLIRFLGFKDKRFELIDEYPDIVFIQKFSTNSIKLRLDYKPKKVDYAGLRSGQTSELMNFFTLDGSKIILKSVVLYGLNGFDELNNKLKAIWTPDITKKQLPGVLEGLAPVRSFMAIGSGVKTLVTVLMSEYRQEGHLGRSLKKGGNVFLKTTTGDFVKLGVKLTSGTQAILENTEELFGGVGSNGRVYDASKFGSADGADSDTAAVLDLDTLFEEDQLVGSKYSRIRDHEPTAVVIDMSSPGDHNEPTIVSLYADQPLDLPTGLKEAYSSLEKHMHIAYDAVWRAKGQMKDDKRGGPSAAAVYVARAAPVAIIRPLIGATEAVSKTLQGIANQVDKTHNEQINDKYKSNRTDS

Key:
[1] = biological target: ATG2A with MBP inserted after residue 1224 (in ATG2_CAD) (human) (UniProt Q2TAZ0); experiment: negative-stain EM
[2] = biological target: ATG2A with MBP inserted after residue 1344 (human) (UniProt Q2TAZ0); experiment: negative-stain EM
[3] = biological target: ATG2A with MBP inserted after residue 1373 (human) (UniProt Q2TAZ0); experiment: negative-stain EM
[4] = biological target: ATG2A with MBP inserted after residue 1503 (human) (UniProt Q2TAZ0); experiment: negative-stain EM
[5] = biological target: ATG2A with MBP inserted after residue 1829 (between the CLR and ATG_C) (human) (UniProt Q2TAZ0); experiment: negative-stain EM
S. cerevisiae ATG2 = S. cerevisiae ATG2 (S. cerevisiae, UniProt P53855 1-1592); experiment: pull-down

B1: human WIPI4 (natural protein, UniProt Q9Y484 1-360, looked up)
chain: MTQQPLRGVTSLRFNQDQSCFCCAMETGVRIYNVEPLMEKGHLDHEQVGSMGLVEMLHRSNLLALVGGGSSPKFSEISVLIWDDAREGKDSKEKLVLEFTFTKPVLSVRMRHDKIVIVLKNRIYVYSFPDNPRKLFEFDTRDNPKGLCDLCPSLEKQLLVFPGHKCGSLQLVDLASTKPGTSSAPFTINAHQSDIACVSLNQPGTVVASASQKGTLIRLFDTQSKEKLVELRRGTDPATLYCINFSHDSSFLCASSDKGTVHIFALKDTRLNRRSALARVGKVGPMIGQYVDSQWSLASFTVPAESACICAFGRNTSKNVNSVIAICVDGTFHKYVFTPDGNCNREAFDVYLDICDDDDF
For B1, the binding [1] was “binds”, the binding [2] was “binds” and the binding [3] was “binds”. For the same binder, the binding [4] was “binds” and the binding [5] was “binds”.

B2: ATG18 (natural protein, S. cerevisiae, UniProt P43601 1-500, looked up)
chain: MSDSSPTINFINFNQTGTCISLGTSKGFKIFNCEPFGKFYSEDSGGYAIVEMLFSTSLLALVGIGDQPALSPRRLRIINTKKHSIICEVTFPTSILSVKMNKSRLVVLLQEQIYIYDINTMRLLHTIETNPNPRGLMAMSPSVANSYLVYPSPPKVINSEIKAHATTNNITLSVGGNTETSFKRDQQDAGHSDISDLDQYSSFTKRDDADPTSSNGGNSSIIKNGDVIVFNLETLQPTMVIEAHKGEIAAMAISFDGTLMATASDKGTIIRVFDIETGDKIYQFRRGTYATRIYSISFSEDSQYLAVTGSSKTVHIFKLGHSMSNNKLDSDDSNMEEAAADDSSLDTTSIDALSDEENPTRLAREPYVDASRKTMGRMIRYSSQKLSRRAARTLGQIFPIKVTSLLESSRHFASLKLPVETNSHVMTISSIGSPIDIDTSEYPELFETGNSASTESYHEPVMKMVPIRVVSSDGYLYNFVMDPERGGDCLILSQYSILMD
With B2 the binding (S. cerevisiae ATG2) was “binds weakly”.
